Measurements reported in PubChem BioAssay AID602196 (INSERM, 2012)

- Screen: 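Modifiers of cisplatin sensitivity in A549 cells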
- Cells: human A549 lung cancer cells
- Reagent: siRNA pair against human genes
- Time to read-out: 48 h transfection before cisplatin; time from cisplatin to read-out not stated
- Conditions: cisplatin at a dose killing half of control-siRNA cells; exact dose and duration not given
- Measured: 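Shift in cisplatin death relative to control siRNA, from -50 (all cells die) to +50 (no cells die); siRNAs harmful on their own scored 0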
- Reading the numbers: two-siRNA summed score (-2 to +2): higher = both siRNAs protect from cisplatin killing; -2 means both sensitise; mean protection from cisplatin (shift in death): higher = protection from cisplatin killing
- Hit rule: 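Each siRNA scores 0 if harmful alone by LDH or WST-1, otherwise +1 if it reduces and -1 if it increases cisplatin killing; a gene is active when both siRNAs agree (sum +2 or -2)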
- Meaning of the calls: active = both siRNAs shift cisplatin killing the same way; inactive = no consistent shift, or siRNA harmful alone
The deposit covers about 23,000 reagents; below is an unselected part. In the full data, 455 (2%) got an active call. 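Active includes both protection and sensitisation; some change values fall well beyond the stated -50 to +50 range.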 Not all columns of the deposit are shown. Not stated in the record: the amount of reagent.

CSRP2: two-siRNA summed score (-2 to +2) = 1; mean protection from cisplatin (shift in death) (%) = -1.8; activity call = inactive
ZNF236: two-siRNA summed score (-2 to +2) = 1; mean protection from cisplatin (shift in death) (%) = 12.5; activity call = inactive
PMS2: two-siRNA summed score (-2 to +2) = 0; mean protection from cisplatin (shift in death) (%) = 6.4; activity call = inactive
DNM2: two-siRNA summed score (-2 to +2) = 1; mean protection from cisplatin (shift in death) (%) = 15.4; activity call = inactive
LOC400675: two-siRNA summed score (-2 to +2) = 0; mean protection from cisplatin (shift in death) (%) = 1; activity call = inactive
BOP1: two-siRNA summed score (-2 to +2) = 0; mean protection from cisplatin (shift in death) (%) = 0.6; activity call = inactive
LOC400712: two-siRNA summed score (-2 to +2) = 1; mean protection from cisplatin (shift in death) (%) = 13.7; activity call = inactive
COX17: two-siRNA summed score (-2 to +2) = 0; mean protection from cisplatin (shift in death) (%) = 0.5; activity call = inactive
ID3: two-siRNA summed score (-2 to +2) = 0; mean protection from cisplatin (shift in death) (%) = -10.8; activity call = inactive
FBXO10: two-siRNA summed score (-2 to +2) = 0; mean protection from cisplatin (shift in death) (%) = -1.6; activity call = inactive
HEMK2: two-siRNA summed score (-2 to +2) = 0; mean protection from cisplatin (shift in death) (%) = -3.6; activity call = inactive
ERP44: two-siRNA summed score (-2 to +2) = 0; mean protection from cisplatin (shift in death) (%) = -10.6; activity call = inactive
CCR10: two-siRNA summed score (-2 to +2) = -1; mean protection from cisplatin (shift in death) (%) = -2.3; activity call = inactive
CIMAP1A: two-siRNA summed score (-2 to +2) = 0; mean protection from cisplatin (shift in death) (%) = -1.2; activity call = inactive
CYP27B1: two-siRNA summed score (-2 to +2) = 0; mean protection from cisplatin (shift in death) (%) = 7.1; activity call = inactive
GDF9: two-siRNA summed score (-2 to +2) = -1; mean protection from cisplatin (shift in death) (%) = -7; activity call = inactive
STON2: two-siRNA summed score (-2 to +2) = 1; mean protection from cisplatin (shift in death) (%) = 11.4; activity call = inactive
FOXG1: two-siRNA summed score (-2 to +2) = 0; mean protection from cisplatin (shift in death) (%) = 4.1; activity call = inactive
TLR9: two-siRNA summed score (-2 to +2) = 0; mean protection from cisplatin (shift in death) (%) = 10.3; activity call = inactive
MOS: two-siRNA summed score (-2 to +2) = 0; mean protection from cisplatin (shift in death) (%) = -0.5; activity call = inactive
PDE9A: two-siRNA summed score (-2 to +2) = -1; mean protection from cisplatin (shift in death) (%) = 5.5; activity call = inactive
CCDC106: two-siRNA summed score (-2 to +2) = 1; mean protection from cisplatin (shift in death) (%) = 6.6; activity call = inactive
KIAA1201: two-siRNA summed score (-2 to +2) = 1; mean protection from cisplatin (shift in death) (%) = 6.3; activity call = inactive
MME: two-siRNA summed score (-2 to +2) = 0; mean protection from cisplatin (shift in death) (%) = 1.8; activity call = inactive
OR51E2: two-siRNA summed score (-2 to +2) = 0; mean protection from cisplatin (shift in death) (%) = 5.2; activity call = inactive
PC: two-siRNA summed score (-2 to +2) = 0; mean protection from cisplatin (shift in death) (%) = -7.3; activity call = inactive
ZMYM1: two-siRNA summed score (-2 to +2) = 0; mean protection from cisplatin (shift in death) (%) = 12.9; activity call = inactive
FAM3A: two-siRNA summed score (-2 to +2) = -1; mean protection from cisplatin (shift in death) (%) = -17.2; activity call = inactive
LIPE: two-siRNA summed score (-2 to +2) = 1; mean protection from cisplatin (shift in death) (%) = 16.3; activity call = inactive
H4C2: two-siRNA summed score (-2 to +2) = 0; mean protection from cisplatin (shift in death) (%) = 7; activity call = inactive
RPS7: two-siRNA summed score (-2 to +2) = 0; mean protection from cisplatin (shift in death) (%) = 26.8; activity call = inactive

A run of entries from the list above:
ERP44: two-siRNA summed score (-2 to +2) = 0; mean protection from cisplatin (shift in death) (%) = -10.6; activity call = inactive
CCR10: two-siRNA summed score (-2 to +2) = -1; mean protection from cisplatin (shift in death) (%) = -2.3; activity call = inactive
CIMAP1A: two-siRNA summed score (-2 to +2) = 0; mean protection from cisplatin (shift in death) (%) = -1.2; activity call = inactive
CYP27B1: two-siRNA summed score (-2 to +2) = 0; mean protection from cisplatin (shift in death) (%) = 7.1; activity call = inactive
GDF9: two-siRNA summed score (-2 to +2) = -1; mean protection from cisplatin (shift in death) (%) = -7; activity call = inactive
